PubChem BioAssay AID1259308 – NCATS – 2017
Purpose: 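Knock-downs that increase output of a recombinant reporter protein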 (primary screen). System: human HEK293 embryonic kidney cells stably expressing firefly luciferase (HEK-CMV-Luc2-Hygro). Knock-down reagent: single siRNA against human genes, 0.8 pmol siRNA per well. Duration: 72 h. Detection: 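Reporter luminescence and viable-cell signal on separate replicate plates, given as percent of non-targeting control and median/MAD z-scores, plus per-cell luciferase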. Reading the numbers: total luciferase, z-score: higher = more reporter protein produced. Hit rule: 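An siRNA counts as active if its total luciferase robust z-score exceeds 3; genes with two or more such siRNAs out of three were retested with fresh siRNAs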. Calls: active = raised luciferase; inactive = no rise.
This is an unselected part of about 59,000 reagents. About 1,510 of all reagents (2.6%) were called active. 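Calls use total luciferase alone and ignore viability, so some active siRNAs may act by altering cell number.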 Reagents against one gene are numbered here. Further read-outs or replicates are left out here.

no.	gene symbol	siRNA no.	total luciferase, z-score	Call
1	LRTM3 (leucine rich repeat transmembrane protein 3)	1	-0.624	inactive
2	LRTM3 (leucine rich repeat transmembrane protein 3)	2	0.39	inactive
3	LRTM3 (leucine rich repeat transmembrane protein 3)	3	-0.576	inactive
4	LRTM3 (leucine rich repeat transmembrane protein 3)	4	0.653	inactive
5	LRTM3 (leucine rich repeat transmembrane protein 3)	5	2.09	inactive
6	LRTM3 (leucine rich repeat transmembrane protein 3)	6	0.79	inactive
7	LSM2	1	0.0211	inactive
8	LSM2	2	3.38	active
9	LSM2	3	1.17	inactive
10	ADGRG3 (adhesion G protein-coupled receptor G3)	1	-0.762	inactive
11	ADGRG3 (adhesion G protein-coupled receptor G3)	2	-0.5	inactive
12	ADGRG3 (adhesion G protein-coupled receptor G3)	3	-0.811	inactive
13	CREB1 (cAMP responsive element binding protein 1)	1	-1.14	inactive
14	CREB1 (cAMP responsive element binding protein 1)	2	-0.406	inactive
15	CREB1 (cAMP responsive element binding protein 1)	3	-0.268	inactive
16	CRB3 (crumbs cell polarity complex component 3)	1	1.14	inactive
17	CRB3 (crumbs cell polarity complex component 3)	2	-1.53	inactive
18	CRB3 (crumbs cell polarity complex component 3)	3	0.65	inactive
19	OSM (oncostatin M)	1	-0.44	inactive
20	OSM (oncostatin M)	2	1.24	inactive
21	OSM (oncostatin M)	3	3.56	active
22	DOK3 (docking protein 3)	1	0.241	inactive
23	DOK3 (docking protein 3)	2	0.84	inactive
24	DOK3 (docking protein 3)	3	1.68	inactive
25	DMRTB1 (DMRT like family B with proline rich C-terminal 1)	1	0.288	inactive
26	DMRTB1 (DMRT like family B with proline rich C-terminal 1)	2	-0.0387	inactive
27	DMRTB1 (DMRT like family B with proline rich C-terminal 1)	3	-2.02	inactive
28	STK36 (serine/threonine kinase 36)	1	0.325	inactive
29	STK36 (serine/threonine kinase 36)	2	0.235	inactive
30	STK36 (serine/threonine kinase 36)	3	0.676	inactive
31	B4GALNT4 (beta-1,4-N-acetyl-galactosaminyltransferase 4)	1	-2.66	inactive
32	B4GALNT4 (beta-1,4-N-acetyl-galactosaminyltransferase 4)	2	2.82	inactive
33	B4GALNT4 (beta-1,4-N-acetyl-galactosaminyltransferase 4)	3	0.252	inactive
34	DAPP1 (dual adaptor of phosphotyrosine and 3-phosphoinositides 1)	1	-1.04	inactive
35	DAPP1 (dual adaptor of phosphotyrosine and 3-phosphoinositides 1)	2	1.12	inactive
36	DAPP1 (dual adaptor of phosphotyrosine and 3-phosphoinositides 1)	3	0.465	inactive
37	DNAAF11 (dynein axonemal assembly factor 11)	1	-0.0958	inactive
38	DNAAF11 (dynein axonemal assembly factor 11)	2	-0.34	inactive
39	DNAAF11 (dynein axonemal assembly factor 11)	3	0.127	inactive
40	AP1S2P2 (AP1S2 pseudogene 2)	1	-1.05	inactive
41	AP1S2P2 (AP1S2 pseudogene 2)	2	-0.221	inactive
42	AP1S2P2 (AP1S2 pseudogene 2)	3	-0.0951	inactive
43	ZNF331 (zinc finger protein 331)	1	-0.605	inactive
44	ZNF331 (zinc finger protein 331)	2	0.467	inactive
45	ZNF331 (zinc finger protein 331)	3	-0.0266	inactive
46	SLC25A41	1	-0.97	inactive
47	SLC25A41	2	0.394	inactive
48	SLC25A41	3	3.56	active
49	NHEJ1 (non-homologous end joining factor 1)	1	-0.263	inactive
50	NHEJ1 (non-homologous end joining factor 1)	2	0.195	inactive
51	NHEJ1 (non-homologous end joining factor 1)	3	0.748	inactive
52	C10orf62 (chromosome 10 open reading frame 62)	1	-0.756	inactive
53	C10orf62 (chromosome 10 open reading frame 62)	2	-0.793	inactive
54	C10orf62 (chromosome 10 open reading frame 62)	3	0.554	inactive
55	LINC02363 (long independently transcribed non-coding RNA 2363)	1	-0.0776	inactive
56	LINC02363 (long independently transcribed non-coding RNA 2363)	2	-0.379	inactive
57	LINC02363 (long independently transcribed non-coding RNA 2363)	3	0.424	inactive
